Measured values published in ChEMBL document CHEMBL5356968, “Miconazole-like Scaffold is a Promising Lead for Naegleria fowleri-Specific CYP51 Inhibitors” (J Med Chem, 2023).

System: Naegleria fowleri
Assay: Antiprotozoal activity against Naegleria fowleri European KUL assessed as inhibition of parasite growth incubated for 48 hrs by CellTiter-Glo luminescent cell viability assay
Type: functional, organism-based
Outline: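 N. fowleri European KUL trophozoites, axenic in Nelson's medium + 10% FBS at 37 °C, harvested in log phase. Single-point screen at 10 μM in duplicate (2,500 amoebae/well). Dose–response in triplicate, serial dilution 50 to 0.39 μM (10,000 amoebae/well). 48 h at 37 °C; viability by CellTiter-Glo luminescence.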

Question: Which EC50 does the source give for `Clc1ccc(COC(Cn2ccnc2)c2ccc(Cl)cc2Cl)c(Cl)c1` (stereo unspecified) [MICONAZOLE] here?
Answer: < 2 µM
